A short description of the assay: qHTS Assay for Lipid Storage Modulators in Drosophila S3 Cells.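 On cell number change: cells counted by Cell Tracker Red CMTPX staining in the red channel.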 Particulars: BODIPY lipid droplet fluorescence, 18-24 h; for cell number change: measured here: cell count max response, cells fed with added oleic acid. Summed up:
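Drosophila S3 cells loaded with oleic acid (400 uM, as added) and compounds at several concentrations; lipid droplets imaged by 488-nm laser-scanning cytometry, 500–530 nm intensity and object ratio to cell channel. Percent activity normalized to 20 uM Triacsin C.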

Setting [1] is: measured here: lipid fluorescence (Fed channel) AC50, cells fed with added oleic acid.
[2] abbreviates: measured here: cell number channel AC50, cells fed with added oleic acid.

The other results are listed elsewhere or left out. Shown are side measurements of this screen, not its main read-out; they come without a call. Most of these compounds were active or inconclusive in the main read-out, so they are no random draw. Potencies come from curve fits of mixed quality, noted in brackets.

The results in this text go back to PubChem BioAssay AID2685 (National Center for Advancing Translational Sciences (NCATS), 2010).

Consider `O=C(c1cc2n(n1)C(C(F)(F)F)CC(c1ccco1)N2)N1CCN(c2ccccn2)CC1` (stereo unspecified), for which the cell number change is -12.6%. Moreover, under setting [1], the AC50 – broadly, the concentration at which the activity in the assay is half-maximal – was 0.103 µM [rising, full curve, poor fit]. Regarding `Cc1cc(Cl)cc(Cl)c1CNc1c([N+](=O)[O-])c(=O)oc2ccccc12`, the cell number change turned out to be 31.2%. Besides, the AC50 under setting [2] was 6.51 µM [rising, full curve, poor fit]. Under setting [1], the AC50 was 29.1 µM [rising, single point]. On to `Fc1ccccc1CN1CCCC(NC2CCC2)C1` (stereo unspecified), for which the cell number change came out at 15.5%. For the same molecule, the AC50 under setting [1] was 32.6 µM [rising, single point]. On to `CCOC(=O)c1cnn(-c2nc(C)cc(C)n2)c1N`, for which the cell number change came to 31.9%. In addition, under setting [2], the AC50 was 1.64 µM [rising, partial curve]. In addition, the AC50 under setting [1] is 2.31 µM [rising, full curve]. As to `Nc1c(C(=O)Nc2ccc3c(c2)OCCO3)nnn1Cc1ccc(Cl)cc1`, the cell number change was determined as 50%. The AC50 under setting [2] was 29.1 µM [rising, single point]. Take `Cc1nc(C#N)c(NCc2ccc3c(c2)OCO3)o1`: the AC50 under setting [2] is 1.16 µM [rising, partial curve].

On to `O=C(COC(=O)/C=C/c1ccccc1)NNC(=O)c1ccc([N+](=O)[O-])cc1`, for which the cell number change is 33.9%. Under setting [2], the AC50 was 13 µM [rising, single point].

As for `NC(N)=NN=C1CCCCCCCCCCC1`, the cell number change is -36.6%. Under setting [2], the AC50 is 29.1 µM [falling, single point].

Consider `Cc1c(C(=O)N2CCCC2)c(S(=O)(=O)NCCc2ccccc2)c(C)n1C`, for which the cell number change came to 14.7%. Besides, the AC50 under setting [1] is 23.1 µM [rising, single point].

As for `O=C(N/N=C\c1ccc(Cl)s1)c1ccc(Cn2cccn2)o1`, the cell number change was -34%. Further, under setting [2], the AC50 is 0.00651 µM [falling, full curve]. Further, under setting [1], the AC50 was 4.11 µM [falling, single point]. `CCn1nc(NS(=O)(=O)c2ccc(NC(C)=O)cc2)c2cc3cc(C)ccc3nc21`: the cell number change was -34.8%. Also, the AC50 under setting [2] was 16.4 µM [falling, partial curve, poor fit].

In the case of `Cc1ccc2c(c1)c(=O)c(Br)c(C)n2Cc1ccccc1`, the AC50 under setting [1] was 29.1 µM [falling, single point]. Turning to `CCOC(=O)Cn1c(=N)n(CCOc2cccc(C)c2)c2ccccc21`, the cell number change is 33.3%. Further, the half-maximal activity concentration (AC50) under setting [1] was 0.651 µM [falling, single point]. As for `Cc1cccc(OCC(=O)Nc2cccc(C(=O)Nc3ccccc3C(=O)O)c2)c1`, the cell number change is 17.9%. Moreover, the AC50 under setting [1] was 4.61 µM [rising, partial curve, poor fit]. Consider `Cc1cccc(C)c1NC(=S)Nc1c(C)n(C)n(-c2ccccc2)c1=O`, for which the cell number change was 15%. The AC50 under setting [1] was 2.91 µM [falling, full curve, poor fit]. With `Cc1ccc(C2=NOC(C)(c3nnc(-c4ccc(F)cc4)o3)C2)cc1` (stereo unspecified), the cell number change was determined as 11.2%. The AC50 under setting [1] was 4.11 µM [falling, single point]. For `CCc1cccc(NC(=O)COC(=O)C2CCN(c3ccc(C(F)(F)F)cn3)CC2)c1`, the cell number change was determined as 8.09%. Also, the AC50 under setting [1] is 6.51 µM [rising, single point]. `Nc1nccc(/C=C/c2c(F)cccc2Cl)n1`: the cell number change amounted to 21%. Under setting [1], the AC50 is 0.13 µM [falling, full curve, poor fit]. For `Cc1cccc(OCCCCCN2CCOCC2)c1C`, the cell number change was determined as 10.5%. Also, the AC50 under setting [1] is 29.1 µM [rising, single point].

On to `CCOC(=O)C1=C(N)N(c2ccc(C)cc2)C2=C(C(=O)CCC2)C1c1cccs1` (stereo unspecified), for which the cell number change is -5.32%. The AC50 under setting [2] was 3.66 µM [rising, single point]. For `CCN(CC)CCSc1nc(O)c(C(C)C)c(=O)[nH]1`, the cell number change was -37.9%. The AC50 under setting [2] was 32.6 µM [falling, single point]. Also, under setting [1], the AC50 was 0.13 µM [falling, full curve, poor fit]. For `O=C(NNC(=O)c1cc(Br)c(Br)s1)c1csc(N2CCOCC2)n1`, the cell number change was 23.9%. Further, the AC50 under setting [1] is 20.6 µM [rising, partial curve, poor fit].

Regarding `CN(C)c1ccc(/C=N/N2C(=S)SC(C)(C)C2N(O)C(=O)Nc2ccc([N+](=O)[O-])cc2)cc1` (stereo unspecified), the cell number change came out at 22.4%. Further, under setting [1], the AC50 is 20.6 µM [rising, partial curve]. On to `O=C(NN1CC(C(=O)OCc2ccc(Br)cc2)CC1=O)c1ccccc1` (stereo unspecified), for which the cell number change came out at 28.5%. Besides, the AC50 under setting [1] was 7.31 µM [rising, partial curve]. Take `Cc1cc(-c2ccc(S(=O)(=O)N3CCN(C)CC3)s2)on1`: the cell number change is -8.78%. Regarding `COc1cc(NC(=O)CCCN2C(=O)NC(C)(C)C2=O)cc(OC)c1`, the cell number change was 4.26%. In addition, under setting [1], the AC50 was 6.51 µM [rising, partial curve, poor fit].

For the molecule `CCN1CCN(Cc2cccc(Oc3ccc(Cl)cc3)c2)CC1`, the cell number change was determined as 10.2%. Also, the AC50 under setting [1] was 0.411 µM [falling, full curve, poor fit].

For `O=C(CNC(=O)C(c1ccccc1)c1ccccc1)N/N=C\c1cccc(O)c1`, the cell number change is 19.9%. Consider `COc1ccc(-c2csc(-c3cccs3)n2)cc1OC`, for which the cell number change was -4.06%.

In the case of `CCc1c(C)nc2ncnn2c1N1CCC(C(=O)Nc2cccc(C(C)=O)c2)CC1`, the cell number change was -8.12%. Besides, under setting [1], the AC50 was 3.66 µM [rising, single point]. With `C=CC[C@H]1Cc2c(cccc2[N+](=O)[O-])[C@H](CC=C)N1`, the cell number change was determined as 3.21%. Also, the AC50 under setting [1] was 23.1 µM [falling, single point]. As for `C=C(C)CSc1nc2c(cc1C#N)CCC2`, the cell number change was determined as 11.2%. Besides, the AC50 under setting [1] is 5.8 µM [rising, partial curve]. As for `CC(C(=O)Nc1ccc(S(=O)(=O)N2CCCC2)cc1)N(C)Cc1ccc(F)cc1` (stereo unspecified), the cell number change is 1.98%.

For `O=C(c1cccs1)N1CCN(c2ccc([N+](=O)[O-])cc2F)CC1`, the AC50 by setting is: under setting [2], 0.00461 µM [rising, full curve, poor fit]; under setting [1], 0.291 µM [rising, full curve, poor fit].

For the molecule `COc1ccc(CCNC(=O)/C(C#N)=C/c2ccc(OCC(=O)NCC3CCCO3)cc2)cc1OC` (stereo unspecified), the cell number change was -16.5%. Moreover, the AC50 under setting [1] was 0.00517 µM [falling, full curve, poor fit]. With `Clc1ccc(CON/C=N/c2ncnc3sccc23)c(Cl)c1`, the cell number change is -12.6%. In addition, the AC50 under setting [1] was 13 µM [falling, single point]. With `O=C(Nc1ccc2c(c1)OCO2)c1cc2n(n1)C(C(F)(F)F)CC(c1ccccc1)N2` (stereo unspecified), the cell number change is -2.05%. As for `Nc1ccc(C(=O)N2CCN(S(=O)(=O)c3ccc(Cl)cc3)CC2)cc1[N+](=O)[O-]`, the cell number change turned out to be 89.1%. Besides, the AC50 under setting [2] is 13 µM [rising, partial curve]. Further, the AC50 under setting [1] is 6.51 µM [rising, single point]. On to `O=C(OCCCN1CCOCC1)c1ccc(O)c(O)c1`, for which the cell number change is -14.5%. For the same molecule, the AC50 under setting [1] is 4.11 µM [falling, full curve, poor fit].

With `COc1ccc(-n2cnc3sc4c(c3c2=O)CCCC4)cc1`, the cell number change was -1.22%. Also, the AC50 under setting [1] is 0.146 µM [rising, single point]. Regarding `Cc1ccc(N2C(=O)N(CC(=O)N(C)Cc3ccccc3)C(=O)C2C)cc1` (stereo unspecified), the cell number change was 34%. Moreover, under setting [2], the AC50 is 2.59 µM [rising, full curve, poor fit]. In the case of `COC(=O)CCC/C=C1/SCC(NC(=O)c2ccccc2)C1=O` (stereo unspecified), the cell number change is -13%. In the case of `CCCNC(=O)COC(=O)c1ccc(-c2ccccc2)cc1`, the cell number change was -25.1%.

Regarding `Cn1c(=O)c2c(nc(NCc3ccc4c(c3)OCO4)n2Cc2ccc(F)cc2)n(C)c1=O`, the cell number change was 22.7%. Under setting [1], the AC50 was 16.4 µM [falling, single point].

As for `O=[N+]([O-])c1ccc(/C=N/n2cnc3ccccc32)s1`, the cell number change is -13.7%. Moreover, the AC50 under setting [1] was 14.6 µM [falling, partial curve].

On to `CCNC(=O)Cc1ccc(S(=O)(=O)N2CCOCC2)s1`, for which the cell number change was 12.9%. Moreover, under setting [2], the half-maximal activity concentration (AC50) is 6.51 µM [rising, single point]. Besides, the AC50 under setting [1] was 4.11 µM [falling, single point]. On to `O=C(CCC(=O)c1ccccc1)NC1CCCN(Cc2ccccc2F)C1` (stereo unspecified), for which the cell number change was -4.2%. In addition, the AC50 under setting [1] was 29.1 µM [rising, single point].

For the molecule `CC(C)Cc1nnc(NC(=O)CCC(=O)N2CCN(Cc3ccc(F)cc3)CC2)s1`, the cell number change is -6.12%. Besides, the AC50 under setting [1] is 0.651 µM [rising, single point].

Turning to `Cn1nc(C(F)(F)F)c(C(=O)Nc2ccc(Cl)cc2)c1Cl`, the cell number change turned out to be 15.4%. In addition, the AC50 under setting [1] is 6.51 µM [rising, partial curve, poor fit].

In the case of `COc1cc(OC)cc(-c2c(-c3cccs3)c3cc(-c4ccc5[nH]ccc5c4)ccc3n2C)c1`, the cell number change is -4.79%. For the same molecule, under setting [1], the AC50 was 0.103 µM [rising, full curve]. Regarding `COc1ccccc1N1CCN(C(=O)COc2cc(C)cc(C)c2)CC1`, the cell number change turned out to be 35.2%. The AC50 under setting [2] is 23.1 µM [rising, single point]. Also, under setting [1], the AC50 was 20.6 µM [rising, partial curve]. Take `O=C(NCCN1CCOCC1)/C(=C\c1ccccc1F)NC(=O)c1ccccc1`: the cell number change was -5.6%. Also, the AC50 under setting [2] was 2.91 µM [falling, single point]. On to `Cc1cc(C(F)F)n2ncc(C(=O)N3CCc4ccccc4C3)c2n1`, for which the cell number change was 1.12%. For the molecule `CC(=O)c1ccc([C@@H]2C[C@]34CN(Cc5cccc(C(F)(F)F)c5)S(=O)(=O)[C@H]3C[C@H]2O4)cc1`, the cell number change is -1.12%. Under setting [1], the AC50 is 18.4 µM [rising, partial curve]. `COc1ccccc1NCC(=O)c1ccc(Cl)cc1`: the AC50 under setting [1] was 6.51 µM [rising, single point]. For the molecule `Cc1cccc(-n2ncc3c2CCCC3NC(=O)CCN2Cc3ccccc3C2=O)c1C` (stereo unspecified), the cell number change was -25.6%. In addition, under setting [2], the AC50 was 3.66 µM [falling, full curve, poor fit].

For the molecule `CCN1CCN(c2nc(SC)nc3sc4c(c23)CC(C)(C)OC4)CC1`, under setting [2], the AC50 was 4.61 µM [rising, single point]. Turning to `CC(=NCCN1CCN(C(C)=C2C(=O)c3ccccc3C2=O)CC1)C1=C(O)CC(C)(C)CC1=O`, the cell number change amounted to 44.4%. Moreover, the AC50 under setting [2] is 29.1 µM [rising, single point]. On to `CNC(=O)CN(C1CCCCC1)S(=O)(=O)c1ccc(OC)c(Cl)c1`, for which the cell number change was -18.2%. For the same molecule, the AC50 under setting [2] was 5.8 µM [falling, single point]. Take `CC(C)OCCCn1c(SC(C)C(=O)NCC2CCCO2)nc2cc(Cl)ccc2c1=O` (stereo unspecified): the cell number change is -23.4%. On to `C/C(=N\NC(=S)NC1CCCCC1)c1ccc(Cl)c(Cl)c1`, for which the cell number change worked out at 2.72%. For the same molecule, under setting [1], the AC50 was 0.13 µM [rising, full curve, poor fit].
